Assay: Sugammadex sodium protein residue detection test (Coomassie Brilliant Blue G-250 method)
Details: crude spiked with 0.1% cyclodextrin glucosyltransferase before recrystallization; 1 g sample in 10 ml water, 595 nm
Experimental: Sugammadex Sodium Protein Residue Detection Test (Coomassie Brilliant Blue G-250 Method): 0, 6, 12, 24, 36, 48 and 60 μl of standard protein solution were respectively added to test tubes, 3 ml of Coomassie Brilliant Blue G-250 staining solution was added, uniform mixing was performed, heat preservation was performed at room temperature for 15 min, colorimetric determination was performed at wavelength of 595 nm. and a standard curve was drawn. 1 g of sugammadex sodium sample to be tested was taken and dissolved in 8 ml of water for injection, heating was performed for dissolution, the pH value was regulated, water for injection was added to fix the volume to 10 ml, the above liquid was enabled to pass through a 0.22 μm filter membrane, and then a sample solution to be tested was prepared. 60 μl of the solution was taken and the above determination was performed to obtain the concentration thereof.

SMILES: O=C([O-])CCSC[C@H]1O[C@@H]2OC3[C@@H](CSCCC(=O)[O-])O[C@H](OC4[C@@H](CSCCC(=O)[O-])O[C@H](OC5[C@@H](CSCCC(=O)[O-])O[C@H](OC6[C@@H](CSCCC(=O)[O-])O[C@H](OC7[C@@H](CSCCC(=O)[O-])O[C@H](OC8[C@@H](CSCCC(=O)[O-])O[C@H](OC9[C@@H](CSCCC(=O)[O-])O[C@H](OC1[C@H](O)[C@H]2O)[C@H](O)[C@H]9O)[C@H](O)[C@H]8O)[C@H](O)[C@H]7O)[C@H](O)[C@H]6O)[C@H](O)[C@H]5O)[C@H](O)[C@H]4O)[C@H](O)[C@H]3O.[Na+].[Na+].[Na+].[Na+].[Na+].[Na+].[Na+].[Na+] [Embodiment 11, sugammadex sodium]
- Content of protein (protein residue): no protein residue was detected

SMILES: O=C([O-])CCSC[C@H]1O[C@@H]2OC3[C@@H](CSCCC(=O)[O-])O[C@H](OC4[C@@H](CSCCC(=O)[O-])O[C@H](OC5[C@@H](CSCCC(=O)[O-])O[C@H](OC6[C@@H](CSCCC(=O)[O-])O[C@H](OC7[C@@H](CSCCC(=O)[O-])O[C@H](OC8[C@@H](CSCCC(=O)[O-])O[C@H](OC9[C@@H](CSCCC(=O)[O-])O[C@H](OC1[C@H](O)[C@H]2O)[C@H](O)[C@H]9O)[C@H](O)[C@H]8O)[C@H](O)[C@H]7O)[C@H](O)[C@H]6O)[C@H](O)[C@H]5O)[C@H](O)[C@H]4O)[C@H](O)[C@H]3O.[Na+].[Na+].[Na+].[Na+].[Na+].[Na+].[Na+].[Na+] [Comparative Embodiment 2, sugammadex sodium]
- Content of protein (protein residue): 0.06 µg/mL
